For 1 substance, binding results are on record in article doi:10.1101/2021.09.09.459581.

Protein sequences, listed by entry. Tags and fused reporters are not part of them. Lines headed by an entry give the natural chain unless they say otherwise; changes in a name come on top. Residues count along the entry.
UniProt P02769, residues 25-607: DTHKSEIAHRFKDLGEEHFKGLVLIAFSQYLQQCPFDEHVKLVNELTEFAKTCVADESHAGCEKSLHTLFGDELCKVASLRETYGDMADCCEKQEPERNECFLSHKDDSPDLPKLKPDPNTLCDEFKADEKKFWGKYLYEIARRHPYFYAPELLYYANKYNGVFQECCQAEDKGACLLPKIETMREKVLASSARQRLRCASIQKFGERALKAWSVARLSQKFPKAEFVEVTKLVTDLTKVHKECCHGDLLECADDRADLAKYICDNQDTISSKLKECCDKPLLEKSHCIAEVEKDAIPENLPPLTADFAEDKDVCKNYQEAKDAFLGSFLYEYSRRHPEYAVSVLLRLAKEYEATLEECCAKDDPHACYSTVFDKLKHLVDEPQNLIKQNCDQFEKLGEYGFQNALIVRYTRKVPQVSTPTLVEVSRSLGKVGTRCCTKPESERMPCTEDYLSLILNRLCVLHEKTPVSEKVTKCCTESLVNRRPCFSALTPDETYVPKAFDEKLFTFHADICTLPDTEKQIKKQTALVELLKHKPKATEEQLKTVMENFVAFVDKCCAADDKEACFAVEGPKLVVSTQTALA
UniProt Q8N539: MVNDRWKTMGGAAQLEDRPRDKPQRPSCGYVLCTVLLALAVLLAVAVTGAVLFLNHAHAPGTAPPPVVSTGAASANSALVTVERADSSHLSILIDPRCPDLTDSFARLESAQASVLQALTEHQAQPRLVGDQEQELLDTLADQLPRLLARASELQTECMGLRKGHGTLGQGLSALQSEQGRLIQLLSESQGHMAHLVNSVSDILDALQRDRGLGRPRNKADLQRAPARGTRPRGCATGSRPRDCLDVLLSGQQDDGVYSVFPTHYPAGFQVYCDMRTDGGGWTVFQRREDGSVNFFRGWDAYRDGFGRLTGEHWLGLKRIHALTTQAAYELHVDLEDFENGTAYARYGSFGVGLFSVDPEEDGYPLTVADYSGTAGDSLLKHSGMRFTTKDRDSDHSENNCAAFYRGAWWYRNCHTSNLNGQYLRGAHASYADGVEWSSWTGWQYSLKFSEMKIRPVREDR

No constants are given. Whether binding was seen depends on the method and setting. A result given as binding can be weak or reduced; the word gives no strength.

The target in the assay is acetylated BSA (bovine) (UniProt P02769). Put plainly: ELISA. A general note: An ELISA detects its analyte on a solid surface through an enzyme-linked reagent.

With “Recombinant FIBCD1 fibrinogen-related domain (FIBCD1-FReD) (from UniProt Q8N539) (domain or fragment)”, the binding entry is “binds”.
